Publication PMC9455994
No constants are given. Whether binding was seen depends on the method and setting. For part of these data: In cells and extracts the contact can be indirect. Some entries that bind do so weakly or less than the wild type. For part of these data: Where a sequence is shown, tags or fusion partners need not be part of it. Values belong to the molecule of their own block, whether it stands above or below them.

The chains behind the UniProt entries cited, without tags or fusion partners. Where a name states a change or a piece, a line headed by the entry shows the natural chain unless it says otherwise.
UniProt Q91WD5: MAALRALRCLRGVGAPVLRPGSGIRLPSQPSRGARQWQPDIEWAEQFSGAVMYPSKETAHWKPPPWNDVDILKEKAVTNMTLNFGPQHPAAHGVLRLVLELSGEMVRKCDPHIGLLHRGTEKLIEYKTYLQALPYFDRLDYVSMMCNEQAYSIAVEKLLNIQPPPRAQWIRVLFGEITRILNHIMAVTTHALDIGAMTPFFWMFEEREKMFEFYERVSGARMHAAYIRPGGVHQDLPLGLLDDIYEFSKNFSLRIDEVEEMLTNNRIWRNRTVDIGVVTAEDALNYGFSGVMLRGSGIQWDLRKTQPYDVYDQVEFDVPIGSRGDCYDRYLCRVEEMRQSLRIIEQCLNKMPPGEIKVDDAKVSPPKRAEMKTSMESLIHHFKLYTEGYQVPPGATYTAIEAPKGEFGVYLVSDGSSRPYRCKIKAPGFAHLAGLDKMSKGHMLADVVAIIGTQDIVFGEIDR

Key:
GFP-tagged Islr = molecular target: T1, GFP-tagged Islr (UniProt Q6GU68); test: co-IP; reciprocal co-IP from transfected HEK293T cells extracted with IP buffer; total protein immunoprecipitated with Islr or Ndufs2 antibody and protein A/G beads; immunoblotting
T1 sequence: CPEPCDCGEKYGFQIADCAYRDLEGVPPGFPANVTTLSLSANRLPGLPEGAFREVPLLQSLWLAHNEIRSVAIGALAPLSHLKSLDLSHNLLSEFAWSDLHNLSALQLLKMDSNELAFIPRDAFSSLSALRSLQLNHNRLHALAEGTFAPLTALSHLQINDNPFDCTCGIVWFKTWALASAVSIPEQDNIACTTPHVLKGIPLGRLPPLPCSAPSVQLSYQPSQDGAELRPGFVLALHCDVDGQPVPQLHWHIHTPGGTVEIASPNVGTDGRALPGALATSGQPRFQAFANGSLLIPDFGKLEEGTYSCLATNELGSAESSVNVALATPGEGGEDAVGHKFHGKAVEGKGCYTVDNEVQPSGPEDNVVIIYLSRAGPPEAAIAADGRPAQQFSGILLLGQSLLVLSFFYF

[1] = molecular target: T2, Immunoglobulin superfamily containing leucine-rich repeat (Islr), pGBKT7-Islr (UniProt Q6GU68); test: two-hybrid; Y2HGold cells cotransformed with pGBKT7-Islr and pGADT7-Ndufs2, plated on QDO/X/A plates; blue colour = positive interaction
T2 sequence: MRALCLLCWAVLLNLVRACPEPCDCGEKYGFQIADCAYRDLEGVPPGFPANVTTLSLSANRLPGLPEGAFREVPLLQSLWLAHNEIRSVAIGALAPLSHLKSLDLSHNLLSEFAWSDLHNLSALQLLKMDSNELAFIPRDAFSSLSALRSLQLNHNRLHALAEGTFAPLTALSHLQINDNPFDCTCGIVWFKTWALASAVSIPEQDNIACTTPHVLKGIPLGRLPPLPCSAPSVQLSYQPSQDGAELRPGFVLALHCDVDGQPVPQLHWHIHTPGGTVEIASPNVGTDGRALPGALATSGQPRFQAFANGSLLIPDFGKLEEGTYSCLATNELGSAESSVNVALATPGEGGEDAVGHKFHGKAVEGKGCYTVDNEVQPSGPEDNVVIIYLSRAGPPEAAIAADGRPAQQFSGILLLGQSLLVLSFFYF

GFP-tagged Ndufs2 = GFP-tagged Ndufs2 (UniProt Q91WD5); test: co-IP; reciprocal co-IP from transfected HEK293T cells extracted with IP buffer; total protein immunoprecipitated with Islr or Ndufs2 antibody and protein A/G beads; immunoblotting

binding (GFP-tagged Islr): binds
Molecule: GFP-tagged Ndufs2 (from UniProt Q91WD5 34-463)

binding [1]: binds
Molecule: NADH: Ubiquinone Oxidoreductase Core Subunit S2 (Ndufs2), pGADT7-Ndufs2 (from UniProt Q91WD5 1-463)

binding (GFP-tagged Ndufs2): binds
B1: GFP-tagged Islr (protein, UniProt Q6GU68 19-428)
chain: T1 sequence
